The values that follow come from ChEMBL document CHEMBL4627399, “Synthesis and Structure-Activity Relationships of 5'-Aryl-14-alkoxypyridomorphinans: Identification of a μ Opioid Receptor Agonist/δ Opioid Receptor Antagonist Ligand with Systemic Antinociceptive Activity and Diminished Opioid Side Effects” (J Med Chem, 2020).

The structures appear in SMILES notation.

The species named for this test is Mus musculus. Nature of the test: animal or person. The class given is functional. The settings on record: CD-1, 24 h.

What is called ED50 is the dose at which the effect has come halfway, by size or by number of responders. Low readings indicate greater potency, high ones weaker potency. `CN1CC[C@]23c4c5ccc(O)c4O[C@H]2[C@@H](O)C=C[C@H]3[C@H]1C5.CN1CC[C@]23c4c5ccc(O)c4O[C@H]2[C@@H](O)C=C[C@H]3[C@H]1C5.O.O.O.O.O.O=S(=O)(O)O` [MORPHINE SULFATE] displayed an ED50 of 6.43 mg/kg.
